Source: PubChem BioAssay AID493014 (National Center for Advancing Translational Sciences (NCATS), 2011)
Values joined by “and” are separate entries in the source; they are usually repeats but may differ in a detail not shown here. Equal entries are not always repeated. This is one part of the list. Further columns of the screen follow, without active or inactive calls. Compounds called inactive in the main read-out are mostly missing here. Potencies come from curve fits of mixed quality, noted in brackets.

Assay: qHTS Assay to Find Inhibitors of Chronic Active B-Cell Receptor Signaling
Settings: ABC-DLBCL IkBa-CBG/CBR reporter, luminescence ratio (green luciferase fused to IkBa over red control in TMD8 lymphoma cells), 4 h
Summary of the method: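 Compounds up to 46 uM were incubated four hours with TMD8 cells whose green CBG68 luciferase is fused to IkappaBalpha; red CBR luminescence normalised the signal, and concentration-effect curves were fitted to fusion, red and ratio data.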

[1] = measured here: CBR red luminescence, cell number

SMILES | AC50 [1] | AC50 (measured here: IkBa-CBG green luminescence)
COc1ccc(CCNC(=O)CN(c2ccc(OC)c(OC)c2)S(C)(=O)=O)cc1OC | 6.51 µM [rising, single point] | 
COc1cc(/C=C2/NC(=O)NC2=O)cc(Br)c1OCc1ccccc1 | 6.31 µM [rising, full curve] | 
CC(Sc1nc2nn(-c3ccccc3)c(=O)c-2c2n1CCCCC2)C(N)=O (configuration not stated) | 6.51 µM [falling, single point] | 
CCN1C(=O)c2cccc3c(S(=O)(=O)Nc4ccccn4)ccc1c23 | 31.6 µM [rising, single point] | 
C[C@H](CO)N1C[C@H](C)[C@@H](CN(C)S(=O)(=O)c2cccs2)Oc2ccc(NC(=O)CCC(F)(F)F)cc2C1=O | 0.92 µM [rising, full curve, poor fit] | 
O=C(CSc1nc2ncc(Cl)cc2[nH]1)Nc1cccc(F)c1 | 7.08 µM [falling, partial curve] | 
FC(F)(F)Oc1ccc(Nc2nc(N3CCOCC3)nc(N3CCOCC3)n2)cc1 | 35.5 µM [rising, single point] | 
O=C(Cc1sc(Nc2ccccc2)nc1-c1ccccc1)NCc1ccccn1 | 11.2 µM [falling, partial curve] | 
O=C1C=C(c2ccccc2)OC(=O)C1C(=O)c1ccccc1 (configuration not stated) | 11.6 µM [falling, partial curve, poor fit] and 7.08 µM [falling, partial curve] | 
Cc1sc(NC(=O)c2c(F)cccc2F)nc1-c1ccccc1 | 2.24 µM [falling, partial curve] | 
O=c1cnnc(Nc2cccc(C(F)(F)F)c2)[nH]1 | 22.4 µM [falling, partial curve, poor fit] | 
C#CCNc1ccc(C(=O)OCC)cc1 | 14.1 µM [rising, single point] | 
CCOc1ccc2c(c1)c1nc3ccccc3nc1n2C | 0.447 µM [falling, full curve, poor fit] | 
CC1Cc2ccccc2N1C(=O)c1ccc(N2CCCCC2)c([N+](=O)[O-])c1 (configuration not stated) |  | 20.6 µM [rising, partial curve, poor fit]
Cc1ccc(C2=Nc3ccccc3N=C(c3ccc([N+](=O)[O-])cc3)C2)c(O)c1 | 8.2 µM [rising, partial curve, poor fit] | 
c1ccc(CSc2nnc([C@@H]3CCCN3)o2)cc1 | 11.2 µM [rising, partial curve] | 
O=C(O)c1cc(NC(=O)c2cccc(C(=O)Nc3cc(C(=O)O)cc(C(=O)O)c3)c2)cc(C(=O)O)c1 | 6.31 µM [falling, single point] | 

3 structures out of the list, ordered by length of the SMILES, rising.
SMILES | AC50 [1] | AC50 (measured here: IkBa-CBG green luminescence)
CCOc1ccc2c(c1)c1nc3ccccc3nc1n2C | 0.447 µM [falling, full curve, poor fit] | 
CCN1C(=O)c2cccc3c(S(=O)(=O)Nc4ccccn4)ccc1c23 | 31.6 µM [rising, single point] | 
FC(F)(F)Oc1ccc(Nc2nc(N3CCOCC3)nc(N3CCOCC3)n2)cc1 | 35.5 µM [rising, single point] | 
